From PubChem BioAssay AID1347423 (Functional Genomics Laboratory (NCATS/FGL), 2020)
The campaign covered roughly 52,000 sequences. About 210 (0.4%) were called active.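 How the source made its calls: active means gene whose silencing raises cell survival under the drug, median off-target-corrected z-score across its silencing RNAs 2 or more; inactive means the rest.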 This is one part of the list.

Assay: Resistance to Poly (ADP-Ribose) Polymerase inhibitor: Gene Identification via Genome-wide siRNA Screen
Conditions: mouse BRCA2 R2336H ES cells, olaparib, CellTiter-Glo viability; stronger effect = higher value
Outline: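 Mouse BRCA2 R2336H ES cells were reverse-transfected with siRNA (20 nM final), treated at 48 h with 500 nM olaparib, and read by CellTiter-Glo after 72 h. Scores: MAD-based z per siRNA, median per gene, seed off-target correction.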

Sequence | z-score
GGAAAAAAAGCAAAUGAUCTT against Ndufa10 | inactive: -1.06
CGACUUGGGUUUUCACGGCTT against Arsb | inactive: -0.362
GGUGGAGAUGGAAAUUGUCTT against Lmod2 | inactive: 0.358
GGCCCAUCACUUACUAAAGTT against C730015A04Rik | inactive: 0.197
GGACUGGAAAAUCGGCUUCTT against Scnn1a | inactive: 0.357
GCUGUGGGAGGAUAGCAUGTT against 2310010G13Rik | inactive: 0.408
CCAUUGCACUGCGCCAACATT against 1700001O22Rik | inactive: 0.642
GGAUCUUCUGCCGUCUUGATT against Creb5 | inactive: -2.86
CCUGAACAUAAAGUUUACUTT against Catsper4 | inactive: 1.86
GGUACAAACUGUUACAUUUTT against Col12a1 | inactive: 0.424
CCCGUCCCAUCCAUUAUUUTT against 2210018M03Rik | inactive: 0.795
GGAUACCAUCCUAGGCCUGTT against Abhd9 | inactive: 0.644
GCGUGGAGAUAAAACCAAUTT against Phka2 | inactive: 0.416
GGCCGAUGCCAAAUUGGUATT against Olfm1 | inactive: -0.701
GCAGGUACCCGGAUUGUCATT against Acr | inactive: -0.233
GCCUUGGUCCUUAAAUAUATT against Slc7a2 | inactive: -0.206
GGAGGAUGAAGAGCUAUUATT against Smarca5 | inactive: -1.14
AUUUACGGGAGAUCAGCUUTT against Olfr670 | inactive: 0.35
GGAAGUGUCUUUAAACUUCTT against 1700034J06Rik | inactive: 1.06
GCAAGCCAAGCACUUCAUUTT against Ppp1cc | inactive: -1.29
GGAGUUCCUUUUUAAACACTT against Bnip3 | inactive: 0.219
GGUACUACAAGCUAGCUGUTT against Scd4 | inactive: -0.037
CCCAGCUUUCAUCCUUUGUTT against 2900064A13Rik | inactive: -0.755
GGAACCAGUGGCUUAGGAATT against 2810417H13Rik | inactive: -0.259
CCCACGAGCAAUAAAAUUGTT against D15Ertd735e | inactive: 1.18
GCUUCAUGCACGGUUCUAUTT against Cib2 | inactive: -0.272
GCUGUGUCGUUCAAAAGAATT against Cd80 | inactive: -0.867
GCCUGACUUCAGACUAUUUTT against Stxbp5l | inactive: -2.58

A section from further up:
Sequence | z-score
CCCGUCCCAUCCAUUAUUUTT against 2210018M03Rik | inactive: 0.795
GGAUACCAUCCUAGGCCUGTT against Abhd9 | inactive: 0.644
